Taken from: PubChem BioAssay AID602196 (INSERM, 2012)
Here is one part, drawn at random, of about 23,000 deposited reagents. Of all reagents, 455 (2%) are marked active. 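Active includes both protection and sensitisation; some change values fall well beyond the stated -50 to +50 range.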 Not all columns of the deposit are shown. No sequences are given here. The record does not give: the amount of reagent.

Purpose: 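Genes whose knock-down alters cisplatin killing of lung cancer cells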
System: human A549 lung cancer cells
Reagents: siRNA pair against human genes
Duration: 48 h transfection before cisplatin; time from cisplatin to read-out not stated
Challenge: cisplatin at a dose killing half of control-siRNA cells; exact dose and duration not given
Detection: 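Shift in cisplatin death relative to control siRNA, from -50 (all cells die) to +50 (no cells die); siRNAs harmful on their own scored 0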
Direction: two-siRNA summed score (-2 to +2): higher = both siRNAs protect from cisplatin killing; -2 means both sensitise; mean protection from cisplatin (shift in death): higher = protection from cisplatin killing
Active means: 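Each siRNA scores 0 if harmful alone by LDH or WST-1, otherwise +1 if it reduces and -1 if it increases cisplatin killing; a gene is active when both siRNAs agree (sum +2 or -2)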
Meaning of the calls: active = both siRNAs shift cisplatin killing the same way; inactive = no consistent shift, or siRNA harmful alone

PCBD2 gave two-siRNA summed score (-2 to +2) = 0; mean protection from cisplatin (shift in death) (%) = 5.4; inactive.
With knock-down of LOC440491, the screen gave two-siRNA summed score (-2 to +2) = 1; mean protection from cisplatin (shift in death) (%) = 12.8; inactive.
LOC388333 showed two-siRNA summed score (-2 to +2) = 0; mean protection from cisplatin (shift in death) (%) = 5.8; inactive.
WBP2 scored two-siRNA summed score (-2 to +2) = 0; mean protection from cisplatin (shift in death) (%) = 4.3; inactive.
GNB4 scored two-siRNA summed score (-2 to +2) = -1; mean protection from cisplatin (shift in death) (%) = -15.4; inactive.
With knock-down of LOC92196, the record shows two-siRNA summed score (-2 to +2) = 0; mean protection from cisplatin (shift in death) (%) = 11.1; inactive.
Against SRMS the deposit lists two-siRNA summed score (-2 to +2) = 0; mean protection from cisplatin (shift in death) (%) = -1.9; inactive.

An excerpt from above, showing only “two-siRNA summed score (-2 to +2)”:
LOC440491	1
LOC388333	0

Continued.
Against ADAMTSL3, the values are two-siRNA summed score (-2 to +2) = 1; mean protection from cisplatin (shift in death) (%) = 14.5; inactive.
With knock-down of ODAPH, the screen gave two-siRNA summed score (-2 to +2) = 0; mean protection from cisplatin (shift in death) (%) = 4; inactive.
For TMPRSS11B, the entry reads two-siRNA summed score (-2 to +2) = 1; mean protection from cisplatin (shift in death) (%) = 8.3; inactive.
OPCML showed two-siRNA summed score (-2 to +2) = 1; mean protection from cisplatin (shift in death) (%) = 0.4; inactive.
Against KRIT1 the deposit lists two-siRNA summed score (-2 to +2) = -1; mean protection from cisplatin (shift in death) (%) = -4.6; inactive.
